Tests used:
[1] = system: Mesenchimal stam cells; assay: Use of Yb(III)HPDO3A to assess the intracellular pH (CEST MRI of cell pellets); assay type: cell-based, murine
[2] = system: animal model of melanoma; assay: In vivo assessment of the pH on animal model of melanoma (CEST MRI, ratiometric method); design: species or system mice; conditions: i.v. 1.2 mmol/Kg

Structure (SMILES): CC(O)CN1CCN(CC(=O)[O-])CCN(CC(=O)[O-])CCN(CC(=O)[O-])CC1.[Yb+3] (stereo not shown) [YbHPDO3A]
- measured intracellular pH, cells electroporated with the complex ([1]; MSH cells electroporated with 0.15M solution in PBS pH 7.4, irradiation at 72 and 99 ppm): 7.00±0.2
- measured intracellular pH, cells incubated with the complex ([1]; MSH cells incubated 3 hours with 0.15M solution in PBS, 37°, pH 7.4 (capillary 2)): 6.8±0.3
- ST % effect in cell pellets (in words) ([1]; irradiation at 72 and 99 ppm, versus cells incubated only with PBS): could be seen only for those cells incubated or electroporated with YbHPDO3A
- physiological T from shift of the exchanging pool in the Z-spectrum of the bladder ([2]; anaesthetised mice): 33 °C
- pH in the bladder ([2]; mice, ratiometric method): 6.06±0.2
- pH in the kidneys medulla ([2]; mice, ratiometric method): 6.24±0.2
- pH in the tumor region ([2]; mice, subcutaneous B16 melanoma, ratiometric method): 6.6±0.2

Source: patent publication US10232060B2, “CEST systems exhibiting a concentration independent responsiveness” (BRACCO IMAGING S.P.A., priority 2010, dated 2019)
